These results are taken from publication PMC10959665.

Protein sequences, listed by entry. Tags and fused reporters are not part of them. Lines headed by an entry give the natural chain unless they say otherwise; changes in a name come on top. Residues count along the entry.
UniProt P70452: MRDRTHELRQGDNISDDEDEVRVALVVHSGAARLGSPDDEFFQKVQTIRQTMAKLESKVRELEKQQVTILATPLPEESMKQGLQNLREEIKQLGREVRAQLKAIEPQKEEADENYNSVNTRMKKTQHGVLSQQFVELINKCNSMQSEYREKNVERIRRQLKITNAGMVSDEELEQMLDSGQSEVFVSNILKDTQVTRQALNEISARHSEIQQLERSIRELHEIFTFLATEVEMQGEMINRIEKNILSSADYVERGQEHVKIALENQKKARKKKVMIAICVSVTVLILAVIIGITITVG
UniProt P63044, residues 2-94: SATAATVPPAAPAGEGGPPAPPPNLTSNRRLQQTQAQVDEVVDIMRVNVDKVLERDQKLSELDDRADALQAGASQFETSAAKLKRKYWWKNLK

Results are given in words; binding and its absence hold for the method and conditions named. Some binding calls cover weakened binding; strength is not graded here.

Experiment [1] concerns the target t-SNAREs: syntaxin-4/SNAP-23 on liposomes (UniProt P70452). The experiment can be described thus: condition: only with 1 μM NSF, 2 μM α-SNAP, 2.5 mM ATP and 5 mM MgCl2/EDTA, also with 5 μM Munc18c; liposome co-flotation; preformed cis-SNARE complex on liposomes incubated with 1 μM NSF, 2 μM α-SNAP, 2.5 mM ATP and 5 mM MgCl2/EDTA, without or with 5 μM Munc18c, at 37 °C for 1 h; Nycodenz gradient flotation; SDS-PAGE, Coomassie blue; both purified.

Experiment [2] shares this target. The experiment is described as follows: liposome co-flotation; t-SNARE liposomes incubated with GST-V2CD for 1 h at 4 °C to assemble the cis-SNARE complex; 37 °C for 1 h without NSF and α-SNAP; Nycodenz gradient flotation; SDS-PAGE, Coomassie blue; both purified.
Experiment [3] shares this target. The experiment can be described thus: liposome co-flotation; soluble proteins incubated with t-SNARE liposomes (100% phosphatidylcholine) at 4 °C for 1 h; 5 μM SNAREs and 5 μM Munc18c or α-SNAP; Nycodenz gradient flotation; SDS-PAGE, Coomassie blue; both purified.

Consider “GST-tagged cytoplasmic domain of VAMP2 (from UniProt P63044 2-94) (domain or fragment)”, for which the binding result in experiment [1] was “no binding”; in experiment [2], “binds”.

B1: alpha soluble N-ethylmaleimide-sensitive factor attachment protein (α-SNAP), wild type (protein, UniProt P54920 1-295)
chain: MDNSGKEAEAMALLAEAERKVKNSQSFFSGLFGGSSKIEEACEIYARAANMFKMAKNWSAAGNAFCQAAQLHLQLQSKHDAATCFVDAGNAFKKADPQEAINCLMRAIEIYTDMGRFTIAAKHHISIAEIYETELVDIEKAIAHYEQSADYYKGEESNSSANKCLLKVAGYAALLEQYQKAIDIYEQVGTNAMDSPLLKYSAKDYFFKAALCHFCIDMLNAKLAVQKYEELFPAFSDSRECKLMKKLLEAHEEQNVDSYTESVKEYDSISRLDQWLTTMLLRIKKTIQGDEEDLR
For the molecule B1, the binding entry in experiment [3] is “binds”.
